The assay deals with T1, ZEB1 (WT), zinc finger E-box binding homeobox 1, P37275.
T1 chain: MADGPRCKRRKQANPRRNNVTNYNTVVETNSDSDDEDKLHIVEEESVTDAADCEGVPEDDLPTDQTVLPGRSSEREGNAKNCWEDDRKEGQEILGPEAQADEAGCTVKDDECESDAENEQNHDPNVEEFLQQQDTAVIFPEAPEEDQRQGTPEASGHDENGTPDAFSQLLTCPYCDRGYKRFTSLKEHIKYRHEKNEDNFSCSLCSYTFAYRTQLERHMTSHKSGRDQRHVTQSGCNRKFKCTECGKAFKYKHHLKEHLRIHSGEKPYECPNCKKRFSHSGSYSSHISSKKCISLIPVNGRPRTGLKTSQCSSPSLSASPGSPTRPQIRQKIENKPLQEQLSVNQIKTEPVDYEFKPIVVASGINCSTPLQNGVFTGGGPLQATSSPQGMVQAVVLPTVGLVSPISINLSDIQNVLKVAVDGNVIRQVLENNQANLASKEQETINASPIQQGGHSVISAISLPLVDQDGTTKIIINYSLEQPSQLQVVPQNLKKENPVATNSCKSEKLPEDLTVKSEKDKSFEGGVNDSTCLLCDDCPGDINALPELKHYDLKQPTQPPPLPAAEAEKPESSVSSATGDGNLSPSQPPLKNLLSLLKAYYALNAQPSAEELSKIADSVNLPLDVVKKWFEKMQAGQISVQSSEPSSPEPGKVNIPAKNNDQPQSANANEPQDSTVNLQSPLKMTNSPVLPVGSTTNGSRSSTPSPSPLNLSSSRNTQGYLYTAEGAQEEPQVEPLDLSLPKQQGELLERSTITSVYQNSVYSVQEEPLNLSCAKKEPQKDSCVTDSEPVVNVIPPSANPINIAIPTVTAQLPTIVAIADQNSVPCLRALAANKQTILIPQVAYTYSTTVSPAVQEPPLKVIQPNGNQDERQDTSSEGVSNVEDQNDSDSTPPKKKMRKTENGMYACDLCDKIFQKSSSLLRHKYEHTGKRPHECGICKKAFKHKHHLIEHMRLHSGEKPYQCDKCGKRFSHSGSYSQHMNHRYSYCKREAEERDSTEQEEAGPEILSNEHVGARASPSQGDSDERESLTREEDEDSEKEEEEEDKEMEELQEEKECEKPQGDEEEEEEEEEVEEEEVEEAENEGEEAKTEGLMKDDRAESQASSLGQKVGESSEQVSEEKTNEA
As to the kind of experiment: co-IP; lysates of HEK293T cells transfected with combinations of two tagged proteins; immunoprecipitation with anti-HA tag antibody-conjugated agarose beads, western blotting with tag antibodies. Conditions: remark: other sources report otherwise. On the technique in general: A western blot detects proteins with antibodies after separation by electrophoresis.

No constants are given. Whether binding was seen depends on the method and setting. In cells and extracts the contact can be indirect.

B1: ZEB1 (WT), zinc finger E-box binding homeobox 1, P37275 1-1124 (protein)
chain: T1 chain
For B1, the binding entry was “no binding”.

Values taken from PMC9997211.
